Consider one compound from US20230278984A1 (Global Blood Therapeutics, Inc., priority 2020, published 2023).

Amino acid sequences for entries named in this document (tags omitted). Residues count along the entry.
UniProt P30613, 14-574 limits assumed: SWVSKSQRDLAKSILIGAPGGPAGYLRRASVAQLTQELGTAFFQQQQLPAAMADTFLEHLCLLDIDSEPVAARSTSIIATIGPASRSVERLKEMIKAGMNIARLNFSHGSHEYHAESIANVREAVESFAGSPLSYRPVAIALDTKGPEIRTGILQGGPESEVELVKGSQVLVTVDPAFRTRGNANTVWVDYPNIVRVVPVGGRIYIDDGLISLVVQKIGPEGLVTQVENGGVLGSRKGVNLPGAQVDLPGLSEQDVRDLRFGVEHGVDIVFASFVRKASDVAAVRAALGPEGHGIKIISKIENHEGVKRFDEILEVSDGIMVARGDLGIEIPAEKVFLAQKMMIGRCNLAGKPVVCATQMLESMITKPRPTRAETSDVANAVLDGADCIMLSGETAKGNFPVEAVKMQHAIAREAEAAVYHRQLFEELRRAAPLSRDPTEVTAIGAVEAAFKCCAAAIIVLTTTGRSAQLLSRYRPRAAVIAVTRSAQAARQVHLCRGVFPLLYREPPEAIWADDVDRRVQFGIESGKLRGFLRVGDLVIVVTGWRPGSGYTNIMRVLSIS

Structures were worked out from names or drawings and are uncertain.

For the assay, the target named is Human pyruvate kinase R (PKR) (Homo sapiens, UniProt P30613). The experiment in a line: Biochemical assay for activation of pyruvate kinase R (Kinase-Glo luminescence measurement of ATP generation).

Consider `Cc1nc(CNC(=O)NCc2ncnn2-c2ccc3ncsc3c2)n(-c2ccc(Cl)c(F)c2)n1`, for which the “PKR % activation (maximal activation level)” value (maximal activation level relative to the activation level achieved by the literature compound AG-348 @ 10 μM) is on record as 75%. Also, the half-maximal activity concentration (AC50) (read-out: PKR AC50, PKR biochemical assay, 0.1 nM PKR, 0.3 mM ADP, 2 mM FBP, 0.1 mM PEP) was found to be 46 nM.
